Where a name gives a salt, the structure may show the parent alone. Some of the results follow. Repeats in this data set agree poorly, so a single value says little.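 The cells are human U-2 OS cells that stably carry a GFP sensor with a nuclear import signal and a classical export signal. They were transfected to make PR50, a 50-repeat proline–arginine dipeptide protein from the ALS/FTD gene C9ORF72. Each well's nuclear-minus-cytoplasm GFP signal was scaled from in-plate DMSO (low) to PR-only wells (high), then scored against the other test wells on the plate; compounds scoring well below zero were called hits that reverse the PR effect.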

The test has as its system U-2 OS NCT-C biosensor cells expressing PR50. Briefly: Z-score of normalised NCT-C biosensor translocation index in PR50-expressing cells; higher = more nuclear biosensor (more disrupted nuclear export). The following applies: 3 µM; 24 h.
For `NCCc1ccc(O)cc1` [4-Hydroxy phenethylamine HCl], the Z-score was inactive: -0.409.
To `CCCN1CCC[C@H](c2cccc(O)c2)C1` [R(+)-3PPP  hydrochloride] belongs inactive: -1.49.
Under `CC[C@@]1([C@@H]2O[C@@H]([C@H]3O[C@@](O)(CO)[C@H](C)C[C@@H]3C)C[C@@H]2C)CC[C@H]([C@]2(C)CC[C@]3(C[C@H](O)[C@@H](C)[C@@H]([C@@H](C)[C@@H](OC)[C@H](C)C(=O)O)O3)O2)O1` [Monensin] stands inactive: -0.156.
Under `CCN(C)C(=O)Oc1cccc([C@H](C)N(C)C)c1` [Rivastigmine Tartrate] stands inactive: -0.323.
Regarding `CCN(C)C(=O)Oc1cccc([C@H](C)N(C)C)c1` [Rivastigmine tartrate], the Z-score was inactive: -0.107.
To `CCOC(=O)c1ccc(-c2ccc(OC(=O)N(C)Cc3cccc(-c4ccncc4)c3)cc2)cc1` belongs inactive: 3.05.
To `CC1=C[C@]23C(=O)[C@@H](C=C(CO)[C@@H](O)[C@]2(O)[C@H]1O)[C@H]1[C@@H](C[C@H]3C)C1(C)C` [Ingenol] belongs inactive: 0.057; to `C[N+]1(C)CCN(c2ccccc2)CC1` [1,1-Dimethyl-4- phenyl- piperazinium iodide], inactive: 0.499; to `COc1ccc2c3c([nH]c2c1)C(C)=NCC3` [Harmaline], inactive: 0.226.
To `C[C@@H](N)Cc1cnc[nH]1` [Histamine, R(-)- alpha-methyl-, dihydrochloride] belongs inactive: 0.0385.
`NCC(O)c1ccc(O)cc1` (racemic) [(±)-Octopamine hydrochloride]: the Z-score is inactive: 0.599.
To `C[N+]1([O-])[C@@H]2CC[C@H]1C[C@@H](OC(=O)C(CO)c1ccccc1)C2` (stereo partly drawn) [Atropine-N-oxide·HCl] belongs inactive: 0.573; to `C=CCc1cc(OC)c2c(c1)OCO2` [Myristicin], inactive: -0.24.
To `COc1ccc(C(=O)OC2CC3CCC(C2)N3C)cc1OC` (stereo not drawn) [Convolvamine] belongs inactive: 0.284.
In the case of `COc1ccc2c(c[n+](C)c3c4cc5c(cc4ccc23)OCO5)c1OC` [Chelerythrine], the Z-score was inactive: -0.922.
Under `CNc1ccc2oc(C[C@H]3O[C@@]4(CC[C@H]3C)O[C@H]([C@H](C)C(=O)c3ccc[nH]3)[C@H](C)C[C@H]4C)nc2c1C(=O)O` [Calcimycin] stands inactive: 0.00806; under `c1ccc2c(c1)[I+]c1ccccc1-2` [Diphenylene iodonium chloride], inactive: -0.0174.
As for `CCN1C[C@]2(COC)[C@H](O)C[C@H](OC)[C@@]34[C@@H]5C[C@@]6(O)[C@H](OC(=O)c7ccccc7)[C@@H]5[C@@](OC(C)=O)([C@@H]([C@H](OC)[C@H]23)[C@@H]14)[C@@H](O)[C@@H]6OC` [Aconitine], the Z-score is inactive: -0.182.

(Values after the supplement of paper PMC8616043.)
